The values below come from PubChem BioAssay AID1347426 (Functional Genomics Laboratory (NCATS/FGL), 2020).

The whole screen tested about 31,000 sequences, of which about 1,400 (4.5%) were called active.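 The calls were made as follows: active = median seed-adjusted z-score above 1 or below -1; inactive = the rest.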 The list shows a part of the results.

The nature of this experiment: Novel Modifiers of Survival Motor Neuron (SMN) Protein: Gene Identification via Genome-wide siRNA Screen.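 Also: luminescence tracks full-length SMN protein made from the SMN2 reporter.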 As to conditions: HEK293T SMN2-luciferase reporter, siRNA knockdown, 72 h; actives lie on both sides. In a few lines: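 Genome-wide siRNA screen (10418 genes, 3 siRNAs each, 1 pmol per well) by reverse transfection in HEK293T cells stably carrying an SMN2-luciferase reporter; luminescence after 72 hours, normalized to negative-control siRNA, log10-transformed, MAD-scored.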
(A reporter such as luciferase makes a cellular process visible.)
As to GAAACCAAGUACGAAAUUUTT against SPDYA, the median seed-adjusted z-score is inactive: 0.351.
Consider GGACUUUGACCUAAUCAGATT against PRKCZ, for which the median seed-adjusted z-score was inactive: -0.175.
Consider GGCUGUGGUCUUCAUCGAATT against TPCN2, for which the median seed-adjusted z-score is inactive: -0.341.
In the case of CCAUGUCUCGAAUCAACUUTT against TAP2 it was inactive: -0.768; in that of GGAUUACCACAGCCUAAAATT against BUB1, inactive: 0.566; in that of CCUUCAAACCGUUCGAGUATT against MYBPC2, inactive: 0.18.
In the case of CACAAGAACAUGUUUCUUATT against CALCR, the median seed-adjusted z-score is inactive: -0.404.
With CACUCUCUGUAAGCAUAUATT against RAD51L3, the median seed-adjusted z-score was inactive: 0.155.
Regarding GCAAGUUACAGUCCUCCGATT against RRBP1, the median seed-adjusted z-score was inactive: -0.254.
On to GGUUCGGGUUUGUCACGUUTT against MSI1, for which the median seed-adjusted z-score is inactive: -0.806.
Take GCAGAUUUUCGAAAGUUUUTT against SIRT5: the median seed-adjusted z-score was inactive: 0.39.
Turning to CGAAUGAUAAGAAAGCGAATT against TIGD1, the median seed-adjusted z-score is inactive: 0.224.
With GAACCUCUCGAUGACCCUATT against MAML3, the median seed-adjusted z-score is inactive: -0.412.
Consider GCACUGUCAAAGACCUGAUTT against PHKG2, for which the median seed-adjusted z-score is inactive: -0.371.
In the case of GCCCGGCAUUUGGAUCUAUTT against FLRT3 it was inactive: -0.468; in that of GAGAGUACAUUGCACUGUATT against GOLGA2, inactive: 0.18; in that of CAACCGUGCUGGUUAUCUUTT against GPR101, inactive: -0.265.
Turning to GGACCAGUUUAGAAGGAUATT against TDP1, the median seed-adjusted z-score is inactive: -0.352.
With CCUACUUUCUAACUAUCAATT against HTR2A, the median seed-adjusted z-score was inactive: 0.0665.
For the sequence CCCUUCGCGUUGUUGCUCATT against DHRS1, the median seed-adjusted z-score is inactive: 0.
Take GUCAGUACUUUAUCUCGUUTT against XRN1: the median seed-adjusted z-score was inactive: 0.522.
Take GAACUGACAUGGGAAGAUUTT against DUOX1: the median seed-adjusted z-score is active: -1.09.
For GCGUAGAUGGUGAAUGUCATT against MST1R, the median seed-adjusted z-score was inactive: -0.278.
Regarding CCUUCUACACCUUUCGCUATT against MMP11, the median seed-adjusted z-score is inactive: -0.354.
In the case of GGCUUAUCCUAUCUUAUAATT against ZNF700, the median seed-adjusted z-score was inactive: 0.
For CAGAUAGGAUUGUAGGUCATT against THNSL1, the median seed-adjusted z-score was inactive: -0.176.
As to CGAGUACAUUUUACGAGUATT against CXADR, the median seed-adjusted z-score is inactive: 0.872.
Take UCAUCCUCUUGAGAAUUAATT against CD6: the median seed-adjusted z-score is inactive: -0.33.
In the case of GCUCACGACUAAUUCAACATT against ZNF582 it was inactive: -0.421.
For the sequence GAGCAGCAACGACAAGAAATT against HAND2, the median seed-adjusted z-score is inactive: 0.0864.
On to GGUGCUAUGUGAGCUCAUUTT against TAGLN2, for which the median seed-adjusted z-score is inactive: 0.432.
As to CAUCAAUGCUAUCAUCUUUTT against CCL20, the median seed-adjusted z-score is inactive: -0.204.
GAGUCGAGUUUGAUGAAGATT against GSTA4: the median seed-adjusted z-score was inactive: -0.848.
As to ACAUGACCAUGAACACCAUTT against FOXA1, the median seed-adjusted z-score was inactive: 0.279.
Take GCAGUUGAUUCUUACCAGATT against TEAD2: the median seed-adjusted z-score is inactive: 0.96.
In the case of GGGACACCAUCUUCGCUUUTT against SEMA4F it was inactive: 0.139; in that of CGAAGUUUCCUAUAGAGGATT against PCDHGA10, inactive: 0.0621.
For the sequence GCAUUUUCCUCCGUUGAGATT against ZNF581, the median seed-adjusted z-score was inactive: 0.486.
For GCCUCAAGAUUGACCUAGATT against STAT3, the median seed-adjusted z-score was inactive: 0.
For UGAUGAGGAGUAUAUGAAATT against FUT11, the median seed-adjusted z-score was inactive: -0.15.
Take GGACAAGACGCAAGAAGAATT against TEF: the median seed-adjusted z-score was inactive: 0.
For the sequence CGCGGUGCAUAUGAAGAUATT against PIGM, the median seed-adjusted z-score was active: 1.36.
In the case of GUUUGAGUGUGACACCUGUTT against ZNF71 it was inactive: -0.0193.
For GCUGAGCUCAGUAACCACATT against LCAT, the median seed-adjusted z-score was inactive: 0.526.
As to CCAGGUCUCCGAUGAACUUTT against BCL2L2, the median seed-adjusted z-score is inactive: 0.
GCCCAGACCUUAGUAGACATT against ZNF618: the median seed-adjusted z-score was inactive: 0.311.
GACUAAUAGCAGAAGGUAATT against PGM2: the median seed-adjusted z-score was inactive: 0.355.
For the sequence AGAUCAGAUUGCAAUUCCATT against SLC23A1, the median seed-adjusted z-score is inactive: 0.904.
The value for CCAUGUACGUCAUCCCAUUTT against PCK1 was inactive: -0.401; that for CUGCUAUUCUGACCCAGAATT against KCNMB2 was inactive: 0.
For the sequence CAGAUACUCCCUUCAGUAATT against SOX30, the median seed-adjusted z-score is inactive: -0.167.
For CCAGCAGACUGCCUACAAATT against GPR119, the median seed-adjusted z-score was inactive: -0.382.
In the case of CCUACAAUCUGGAAACCAUTT against SERPINA9 it was inactive: 0.497.
For AGCUCUUUAUGCUUCUUGATT against QPCTL, the median seed-adjusted z-score is inactive: -0.422.
The value for CCGGGAUAAUUAAUGACCATT against PHOX2A was inactive: 0.466; that for GGGAGGGCAUCAACAAGAATT against RGS19 was inactive: 0.295.
The value for GCAUGAUGUCUGUUACACUTT against DLAT was inactive: 0; that for CCUCUGUCCUCUACAAGAATT against TRMT5 was inactive: 0.
AGAUUGGAUUCACCACAGATT against OGDHL: the median seed-adjusted z-score is inactive: -0.0878.
The value for AAAACAAAAAUGAUCUACATT against SLC10A1 was inactive: -0.19; that for CCUGGGAUCUGAGUACAUATT against HMGA1 was inactive: 0.557.
CCACAAGUUUGAUUUCGAATT against NLRC4: the median seed-adjusted z-score is inactive: -0.00107.
In the case of GAUUCGAAAUGGACCAAGATT against FKBP14, the median seed-adjusted z-score is inactive: -0.455.
Take GGUUGUAGAGUUGAAAGUUTT against UBE2O: the median seed-adjusted z-score is inactive: 0.125.
On to GUGUAUUACCUGAGAAUCATT against CYP24A1, for which the median seed-adjusted z-score was inactive: 0.136.
For GGUGCGAGAUUUACUCAGATT against ALAS2, the median seed-adjusted z-score is inactive: -0.142.
The value for GAACUAUAUUCUUCUGUGATT against CDH1 was inactive: -0.24.
Take GGAGUGAUAGUAACACCUUTT against ILF2: the median seed-adjusted z-score is inactive: -0.19.
As to CUACUUGACGAAACCCAGATT against MKI67IP, the median seed-adjusted z-score was inactive: 0.426.
